Out of some 240,000 compounds screened, about 1,300 (0.54%) were called active. The shares of active, inactive and inconclusive entries below differ from those in the screen. Calls come from the whole dose curve; as a rule, active = well fitted inhibition curve with a large enough effect; inconclusive = small, poorly fitted or top-dose-only effect; inactive = flat fitted curve, though single readings scatter. A potency beside an inconclusive call is a rough fit, not a confirmed value.
biological target: ATP-dependent DNA helicase Q1 (Homo sapiens) (UniProt P46063); assay: qHTS Assay for Inhibitors of RecQ-Like Dna Helicase 1 (RECQ1); conditions: RECQ1 DNA unwinding, red fluorescence kinetic read; activity, negative = inhibition: at 57.3 µM (top of the series); series mostly up to 57.3 µM; note: nearly all actives have a fitted effect of over 30% in size;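 for activity, negative = inhibition: plate controls were vehicle for no effect and no enzyme for full effect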
Method in brief: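 50 nM RECQ1T1 preincubated 15 min with compound in Tris pH 8.0 buffer with MgCl2, DTT, Tween-20 and 2.5 ug/ml poly(dI-dC); started with 200 nM TAMRA/BHQ-2 forked duplex and 2 mM ATP. Unwinding read as fluorescence (525/598 nm), two reads 2 h apart.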
Potency is the fitted concentration of half-maximal effect.

Amino acid sequences for entries named in this document (tags omitted). A change or cut given only in a name is not applied to a line headed by its entry.
UniProt P46063: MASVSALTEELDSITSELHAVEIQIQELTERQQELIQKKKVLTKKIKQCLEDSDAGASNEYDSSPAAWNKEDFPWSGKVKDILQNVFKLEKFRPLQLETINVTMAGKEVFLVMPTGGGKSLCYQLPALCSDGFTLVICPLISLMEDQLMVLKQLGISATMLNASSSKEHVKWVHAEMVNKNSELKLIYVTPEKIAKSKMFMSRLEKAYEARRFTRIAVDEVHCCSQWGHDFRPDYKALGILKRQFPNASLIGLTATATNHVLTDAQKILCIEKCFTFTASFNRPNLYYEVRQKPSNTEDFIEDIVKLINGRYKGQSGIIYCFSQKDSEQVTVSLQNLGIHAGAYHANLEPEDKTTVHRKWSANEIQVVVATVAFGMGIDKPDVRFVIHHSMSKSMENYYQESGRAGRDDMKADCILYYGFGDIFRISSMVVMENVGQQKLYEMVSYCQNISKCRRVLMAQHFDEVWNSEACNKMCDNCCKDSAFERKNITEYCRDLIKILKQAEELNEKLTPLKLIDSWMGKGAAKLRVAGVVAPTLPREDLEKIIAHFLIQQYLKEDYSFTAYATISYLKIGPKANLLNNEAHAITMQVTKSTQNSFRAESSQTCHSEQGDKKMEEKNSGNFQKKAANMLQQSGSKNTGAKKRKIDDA

| SMILES | Potency | outcome | activity, negative = inhibition |
| --- | --- | --- | --- |
| CCn1c(SCC(=O)N/N=C/C=C/c2ccco2)nc2ccccc21 | inconclusive: 25.1 µM [inhibitor, single point] |  |  |
| COC(=O)C1=C(C)N(c2cccc3ccccc23)C(=O)C1 | inconclusive: 31.6 µM [inhibitor, single point] |  |  |
| O=C(NCCCO)c1ccc2nc(-c3ccco3)c(-c3ccco3)nc2c1 | inconclusive: 20 µM [inhibitor, single point] |  |  |
| C/C=C/C=C\C(=O)Nc1cccc(C2=NOC3(C2)C[C@@H](C(N)=O)N(C(=O)c2cc([N+](=O)[O-])cc([N+](=O)[O-])c2C)C3)c1 (stereo not given in full) |  | inactive |  |
| C[C@]12CC[C@@H]3c4cc(O)c(O)cc4CC[C@H]3[C@@H]1CC[C@@H]2O |  |  | inactive: -6.76% |
| O=[N+]([O-])c1cc(Cl)ccc1N1CCCCC1 |  |  | inactive: -10% |
| CCN=c1scc(C)n1/N=C/c1cc(Br)c(O)c(Br)c1 | inconclusive: 35.5 µM [inhibitor, single point] |  |  |
| CSCCC(NS(=O)(=O)c1ccc(Cl)cc1)C(=O)OCc1c(Cl)cccc1Cl (stereo not given) | inconclusive: 0.708 µM [inhibitor, full curve] |  |  |
| OC(COc1ccccc1)Cn1c2ccccc2c2ccccc21 (stereo not given) | inconclusive: 31.6 µM [inhibitor, partial curve] |  |  |
| COc1ccc(NC(=O)c2cc(-c3ccco3)nc3ccccc23)cc1S(=O)(=O)N1CCOCC1 | inconclusive: 39.8 µM [inhibitor, single point] |  |  |
| CCN(CC)c1ccc(C(=O)O)cc1 |  |  | inactive: -2.7% |
| O=C1CCCC2=C1C(c1ccc(Br)cc1)c1c([nH]c(=S)[nH]c1=O)N2 (stereo not given) | inconclusive: 39.8 µM [inhibitor, single point] |  |  |
| CCCCNC(C(=O)Nc1ccc([N+](=O)[O-])cc1Br)c1ccccc1 (stereo not given) |  |  | inactive: -19% |
| COc1ccc(NC(=O)c2csc(Cc3ccc(Cl)cc3)n2)cc1 | inconclusive: 35.5 µM [inhibitor, single point] |  |  |
| COc1cc2ccccc2cc1C(=O)NC(=S)Nc1cccc(C(=O)O)c1 | inconclusive: 39.8 µM [inhibitor, single point] |  |  |
| CN(C)c1ccc(CN2CCC(C(N)=O)CC2)cc1 |  | inactive |  |
| CCN(CCCCN1C(=O)c2ccccc2C1=O)c1ccc2c(c1)C(=O)N(C)C2=O | active: 28.2 µM |  |  |
| CCOC(=O)NNc1ccc2nonc2c1[N+](=O)[O-] | inconclusive: 14.1 µM [inhibitor, single point] |  |  |
| COc1ccc(-c2cccc(C3C4C=CCCC4(C)C(=O)N3Cc3ccccc3)c2)cc1 (stereo not given) |  |  | inactive: -14.9% |
| CCOc1ccc(OCCSc2nnnn2C2CCCCC2)cc1 | inconclusive: 22.4 µM [inhibitor, partial curve] |  |  |
| NS(=O)(=O)c1ccc(NC(=O)N2c3ccccc3Sc3ccccc32)cc1 |  | inactive |  |
| O=C(CSc1nc2ccccc2c(=O)n1-c1ccc(F)cc1)Nc1ccc(Cl)c(S(=O)(=O)N2CCOCC2)c1 | inconclusive: 0.794 µM [inhibitor, full curve] |  |  |
| c1ccc(CN2CCN(c3ncnc4nc[nH]c34)CC2)cc1 | inconclusive: 0.0251 µM [inhibitor, full curve, poor fit] |  |  |

| SMILES | Potency | outcome | activity, negative = inhibition |
| --- | --- | --- | --- |
| COc1cc(C(=O)Oc2ccccc2/C=N/NC(=O)c2ccc(Cl)cc2)cc(OC)c1OC | active: 22.4 µM |  |  |
| CC(=O)Oc1ccc([N+](=O)[O-])cc1N1C(=O)c2ccccc2C1=O | inconclusive: 35.5 µM [inhibitor, partial curve] |  |  |
| COc1c2c(cc3oc(C)cc(=O)c13)OC(C(C)(C)OC1OC(CO)C(O)C(O)C1O)C2 (stereo not given) | inconclusive: 39.8 µM [inhibitor, single point] |  |  |
| Cc1ccc(COC(=O)c2nn(-c3ccccc3)nc2N)cc1 | inconclusive: 3.55 µM [inhibitor, full curve] |  |  |
| NC(=O)c1c(NC(=O)CN2C(=O)CCC2=O)sc2c1CCCCC2 |  |  | inactive: -5.59% |
| CC(C)(C)c1ccc(C(=O)N2CCNCC2)cc1 |  |  | inactive: -8.23% |
| O=C1CCC/C(=N\NC(=O)c2ccc(COc3cccc4cccnc34)cc2)C1 | inconclusive: 35.5 µM [inhibitor, single point] |  |  |
| O=C(O)CC(CNS(=O)(=O)c1ccccc1)c1ccccc1 (stereo not given) |  |  | inactive: -3.75% |
| COC(=O)C1=C(C(=O)OC)[C@@H]2N(C)c3ccc(OC)cc3[C@@]23C[C@@H](C(=O)OC)N(S(=O)(=O)c2ccc(C(F)(F)F)cc2)C3=N1 |  |  | inactive: -0.707% [at 11.5 µM] |
| O=C(Nc1ccc(Cl)cc1)Nc1ccccc1C(=O)O |  |  | inactive: 31.8% |
| N#CC1=C2SCN(Cc3ccco3)CN2C(=O)CC1c1cccc2ccccc12 (stereo not given) | inconclusive: 39.8 µM [inhibitor, single point] |  |  |
| Nc1ccc(N2CCN(CCCCN3C(=O)C4CCCN4C3=O)CC2)cc1 (stereo not given) | inconclusive: 22.4 µM [inhibitor, single point] |  |  |
| C/C(=N\Nc1ccc([N+](=O)[O-])cc1)c1ccc(N)cc1 |  |  | inactive: 5.8% |
| COc1c(C(CC(C)C)OC(C)=O)ccc2c1C(=O)OCc1cc(C)cc(O)c1O2 (stereo not given) | inconclusive: 31.6 µM [inhibitor, single point] |  |  |
| COc1ccc(/C=N/NC(=O)c2nn(-c3ccccc3)c(=O)c3c(N)scc23)cc1 | active: 25.1 µM |  |  |
| C=CCn1c(=O)/c(=C/c2ccc(C)o2)s/c1=C(/C#N)C(=O)c1ccccc1 | active: 31.6 µM |  |  |
| Cn1ncc([N+](=O)[O-])c1C(=O)Nc1ccc(-c2nc3ccccc3[nH]2)cc1 | inconclusive: 3.98 µM [inhibitor, single point] |  |  |
| O=C1NC(=O)/C(=C\c2ccc(O)cc2O)S1 | active: 22.4 µM |  |  |
| COCc1cc(C)nc(N/N=C/c2ccc(-c3ccc(C(=O)O)c(Cl)c3)o2)c1C#N | inconclusive: 17.8 µM [inhibitor, partial curve] |  |  |
| CC(C)c1ccccc1NC(=O)Nc1ccc(F)cc1F | inconclusive: 0.0501 µM [inhibitor, full curve] |  |  |
| CCCN(C(=O)c1cc2c(s1)CCC2)c1c(N)n(Cc2ccccc2)c(=O)[nH]c1=O | active: 22.4 µM |  |  |
| CCOc1ccccc1N1CCN(c2nc(N)c(C#N)c(CC#N)c2C#N)CC1 | inconclusive: 39.8 µM [inhibitor, single point] |  |  |

2 entries drawn at random from those above, as already listed:

| SMILES | Potency | outcome | activity, negative = inhibition |
| --- | --- | --- | --- |
| CC(C)c1ccccc1NC(=O)Nc1ccc(F)cc1F | inconclusive: 0.0501 µM [inhibitor, full curve] |  |  |
| CC(=O)Oc1ccc([N+](=O)[O-])cc1N1C(=O)c2ccccc2C1=O | inconclusive: 35.5 µM [inhibitor, partial curve] |  |  |
